Binding data for 2 molecules are collected here from publication PMC6465354.

This assay has as its target T1, Flag-Mint2 WT (rat) (UniProt O35431).
T1 sequence: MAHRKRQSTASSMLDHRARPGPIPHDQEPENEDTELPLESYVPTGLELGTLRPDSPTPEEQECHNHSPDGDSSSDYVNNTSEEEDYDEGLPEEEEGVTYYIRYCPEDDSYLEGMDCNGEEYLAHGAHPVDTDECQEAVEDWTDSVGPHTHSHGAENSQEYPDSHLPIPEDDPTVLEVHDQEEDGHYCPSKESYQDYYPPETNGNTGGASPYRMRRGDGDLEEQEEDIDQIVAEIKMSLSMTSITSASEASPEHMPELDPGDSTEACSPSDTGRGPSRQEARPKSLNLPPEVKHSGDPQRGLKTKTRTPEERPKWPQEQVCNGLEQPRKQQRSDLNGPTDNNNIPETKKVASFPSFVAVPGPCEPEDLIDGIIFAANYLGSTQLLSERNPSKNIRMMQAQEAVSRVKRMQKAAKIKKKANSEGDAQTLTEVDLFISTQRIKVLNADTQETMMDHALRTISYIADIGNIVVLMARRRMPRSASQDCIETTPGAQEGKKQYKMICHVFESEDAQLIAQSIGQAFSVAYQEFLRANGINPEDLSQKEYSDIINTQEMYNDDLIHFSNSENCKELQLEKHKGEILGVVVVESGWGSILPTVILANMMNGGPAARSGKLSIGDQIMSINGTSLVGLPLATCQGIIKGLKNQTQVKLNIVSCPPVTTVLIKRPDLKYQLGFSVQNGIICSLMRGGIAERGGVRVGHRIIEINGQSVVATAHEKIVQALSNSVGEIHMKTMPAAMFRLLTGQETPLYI
Put plainly: co-IP; HEK293T co-transfected with Flag-Mint2 WT and GFP-Mint2 constructs; lysates 48 h after transfection; IP with Flag antibody, immunoblot for GFP; quantified relative to Mint2 WT. In general terms: A western blot detects proteins with antibodies after separation by electrophoresis.

These are yes or no findings as the source states them, for the method shown. In cells and extracts the contact can be indirect. Some entries that bind do so weakly or less than the wild type. Tags and fused reporters may be left off the sequences shown.

B1: GFP-tagged Mint2 wild type (rat) (protein, UniProt O35431 1-750)
chain: MAHRKRQSTASSMLDHRARPGPIPHDQEPENEDTELPLESYVPTGLELGTLRPDSPTPEEQECHNHSPDGDSSSDYVNNTSEEEDYDEGLPEEEEGVTYYIRYCPEDDSYLEGMDCNGEEYLAHGAHPVDTDECQEAVEDWTDSVGPHTHSHGAENSQEYPDSHLPIPEDDPTVLEVHDQEEDGHYCPSKESYQDYYPPETNGNTGGASPYRMRRGDGDLEEQEEDIDQIVAEIKMSLSMTSITSASEASPEHMPELDPGDSTEACSPSDTGRGPSRQEARPKSLNLPPEVKHSGDPQRGLKTKTRTPEERPKWPQEQVCNGLEQPRKQQRSDLNGPTDNNNIPETKKVASFPSFVAVPGPCEPEDLIDGIIFAANYLGSTQLLSERNPSKNIRMMQAQEAVSRVKRMQKAAKIKKKANSEGDAQTLTEVDLFISTQRIKVLNADTQETMMDHALRTISYIADIGNIVVLMARRRMPRSASQDCIETTPGAQEGKKQYKMICHVFESEDAQLIAQSIGQAFSVAYQEFLRANGINPEDLSQKEYSDIINTQEMYNDDLIHFSNSENCKELQLEKHKGEILGVVVVESGWGSILPTVILANMMNGGPAARSGKLSIGDQIMSINGTSLVGLPLATCQGIIKGLKNQTQVKLNIVSCPPVTTVLIKRPDLKYQLGFSVQNGIICSLMRGGIAERGGVRVGHRIIEINGQSVVATAHEKIVQALSNSVGEIHMKTMPAAMFRLLTGQETPLYI
As for B1, the binding entry is listed as “binds”.

B2: GFP-tagged Mint2 N723S (rat) (protein, UniProt O35431 1-750)
chain: MAHRKRQSTASSMLDHRARPGPIPHDQEPENEDTELPLESYVPTGLELGTLRPDSPTPEEQECHNHSPDGDSSSDYVNNTSEEEDYDEGLPEEEEGVTYYIRYCPEDDSYLEGMDCNGEEYLAHGAHPVDTDECQEAVEDWTDSVGPHTHSHGAENSQEYPDSHLPIPEDDPTVLEVHDQEEDGHYCPSKESYQDYYPPETNGNTGGASPYRMRRGDGDLEEQEEDIDQIVAEIKMSLSMTSITSASEASPEHMPELDPGDSTEACSPSDTGRGPSRQEARPKSLNLPPEVKHSGDPQRGLKTKTRTPEERPKWPQEQVCNGLEQPRKQQRSDLNGPTDNNNIPETKKVASFPSFVAVPGPCEPEDLIDGIIFAANYLGSTQLLSERNPSKNIRMMQAQEAVSRVKRMQKAAKIKKKANSEGDAQTLTEVDLFISTQRIKVLNADTQETMMDHALRTISYIADIGNIVVLMARRRMPRSASQDCIETTPGAQEGKKQYKMICHVFESEDAQLIAQSIGQAFSVAYQEFLRANGINPEDLSQKEYSDIINTQEMYNDDLIHFSNSENCKELQLEKHKGEILGVVVVESGWGSILPTVILANMMNGGPAARSGKLSIGDQIMSINGTSLVGLPLATCQGIIKGLKNQTQVKLNIVSCPPVTTVLIKRPDLKYQLGFSVQNGIICSLMRGGIAERGGVRVGHRIIEINGQSVVATAHEKIVQALSSSVGEIHMKTMPAAMFRLLTGQETPLYI
As to B2, the binding entry is given as “binds”.
